# Laboratory results published in PubChem BioAssay AID1688 (National Center for Advancing Translational Sciences (NCATS), 2009).
# Among all 220,000 compounds or so, about 2,400 (1.1%) were called active. Inconclusive means that the source gave no clear call. Such entries were picked first, then a sample of the others. Calls come from the whole dose curve; as a rule, active = well fitted inhibition curve with a large enough effect; inconclusive = small, poorly fitted or top-dose-only effect, or effect the other way; inactive = no such curve, though single readings can be large or run the other way. Potencies beside an inconclusive call are fits to weak or partial responses and may not hold up.
# Experiment: qHTS Multiplex Assay to Identify Dual Action Probes in a Cell Model of Huntington: Aggregate Formation (GFP); note: nearly all actives have a fitted effect of over 60% in size
# Details: PC12 HttQ103-GFP aggregates, Acumen cytometry, 40 h; activity change, negative = inhibition: at 46.1 µM (top of the series) unless noted
# In short: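 Aggregate formation scored by laser-scanning cytometer (488 excitation, 500–530 emission) in lysed PC12 cells expressing Q103-GFP after 100 nM tebufenozide induction; library tested in dose series, with ATPLite reagent added in the multiplex.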
# % is set by controls: 0 for no effect and ±100 for the full control effect; potency is the fitted concentration of half-maximal effect.
Compound,Potency,"activity change, negative = inhibition"
CC1CCN(c2c(NCc3ccc(C(=O)NCc4cccnc4)cc3)c(=O)c2=O)CC1,"inconclusive: 1.12 µM [inhibitor, single point]",
CC(NC(=S)Nc1cccc(C(F)(F)F)c1)C(C)(C)C (stereo not given),"inconclusive: 35.5 µM [inhibitor, single point]",
O=C1CN(C(=O)COC(=O)CCSc2ccccc2Cl)c2ccccc2N1,,inactive: 16.8% [at 9.22 µM]
CCSc1nc2ccccc2n1C(=O)c1ccc(S(=O)(=O)N2CCCCCC2)cc1,inactive,
COc1ccc(NC(=O)c2sc(=S)[nH]c2N)cc1,inactive,
Cc1cc(/C=N\NC(=O)COc2cccc3cccnc23)c(C)n1-c1ccccc1,"inconclusive: 35.5 µM [inhibitor, single point]",
Nc1ccc(N2CCCCC2)cc1N1CCCCC1,"inconclusive: 35.5 µM [inhibitor, single point]",
CCCCNC(=O)Nc1cc(C(=O)OC)ccc1C,inactive,
Cc1nn(-c2ccccc2)c(C)c1/C=N/NC(=O)c1cc(-c2ccc(Cl)s2)[nH]n1,"inconclusive: 15.8 µM [inhibitor, single point]",
O=S(=O)(Nc1ccc(Cc2ccncc2)cc1)c1ccc(Cl)c(Cl)c1,active: 11.2 µM,
Cc1cccc(Oc2nc3ccccn3c(=O)c2/C=C(\C#N)C(=O)NC2CCS(=O)(=O)C2)c1 (stereo not given),inactive,
O=C(O)c1cccc(NC2=C(Cl)C(=O)c3ccccc3C2=O)c1,"inconclusive: 31.6 µM [inhibitor, single point]",
N#Cc1c(-c2ccccc2Cl)cc(-c2ccccc2)nc1Br,inactive,
C=C(C)C1CC=C(C)/C(=N/NC(=O)c2ccc(NC(=O)c3cccc(C)c3)cc2)C1 (stereo not given),inactive,
O=C(Nc1nccs1)c1ccc(CSc2nnnn2-c2ccccc2)cc1,"inconclusive: 8.91 µM [inhibitor, partial curve]",
O=C(Cn1c(-c2ccccc2)noc1=O)Nc1ccc(N2CCCCCC2)cc1,"inconclusive: 35.5 µM [inhibitor, single point]",
CCOC(=O)CC(NS(=O)(=O)Cc1ccccc1)c1ccc(C)cc1 (stereo not given),"inconclusive: 0.794 µM [inhibitor, single point]",
COc1cccc(CN(C)C(=O)c2csc3c2CCCC3)c1OC,inactive,
O=C(c1ccc([N+](=O)[O-])s1)N1CCc2ccccc2C1,"inconclusive: 12.6 µM [inhibitor, single point]",
COc1ccc(NC(=O)COC(=O)c2ccc(OCc3ccccc3Cl)c(OC)c2)c(OC)c1,"inconclusive: 11.2 µM [inhibitor, single point]",
COc1ccc(CCNC(=O)c2cc(-c3cc(C)c(C)cc3O)n[nH]2)cc1OC,"inconclusive: 3.55 µM [activator, single point]",
O=C(Nc1ccc(Cl)c(-c2nc3ccccc3[nH]2)c1)c1cccnc1,"inconclusive: 7.94 µM [inhibitor, partial curve]",
CCc1cccc(C)c1NC(=S)NCCc1c(C)[nH]c2ccc(C)cc12,"inconclusive: 35.5 µM [inhibitor, single point]",
CC(/C=C\c1ccccc1)=C/C(=O)O,,inactive: 14% [at 9.22 µM]

Compound,Potency,"activity change, negative = inhibition"
O=C(Nc1nc(COc2ccccc2)cs1)C1CCC1,"inconclusive: 11.2 µM [inhibitor, single point]",
CCC(=O)Nc1nn(C)c2nc3c(C)cccc3cc12,"inconclusive: 7.94 µM [inhibitor, partial curve, poor fit]",
Cn1c(=O)oc2cc(S(=O)(=O)N3CCCC(C(=O)N4CCc5ccccc5C4)C3)ccc21 (stereo not given),"inconclusive: 35.5 µM [inhibitor, single point]",
Fc1ccc(/C=N/Nc2nc3ccccc3[nH]2)cc1F,"inconclusive: 35.5 µM [inhibitor, partial curve]",
COc1ccc(NC(=O)Nc2nnc(-c3ccncc3)s2)cc1,active: 20 µM,
COc1ccc(CC(=O)NNC(=O)CCC(=O)Nc2cc(C)ccc2C)cc1,"inconclusive: 2 µM [activator, full curve, poor fit]",
C[n+]1ccccc1COc1ccc(C(C)(C)C)cc1,"inconclusive: 17.8 µM [inhibitor, single point]",
COc1cc([N+](=O)[O-])cc(/C=N/NC(=O)C(C)Nc2ccccc2C)c1O (stereo not given),active: 12.6 µM,
Cc1cccc(NC(=O)COC(=O)c2ccccc2-c2nc3ccccc3s2)c1C,"inconclusive: 31.6 µM [activator, single point]",
Cn1c(-c2ccc(Br)cc2)cnc1NCc1cccnc1,inactive,
CC(/C=C1\SC(=S)N(NS(=O)(=O)c2ccc(C)cc2)C1=O)=C\c1ccccc1,,inactive: 0% [at 9.22 µM]
Cc1cccc(OCCn2c(NC(=O)c3ccco3)nc3ccccc32)c1,"inconclusive: 7.08 µM [inhibitor, partial curve]",
Cc1ccc(F)cc1CNC(=O)c1cc(COc2ccc3ncccc3c2)on1,active: 12.6 µM,
CCCCC(=O)N1CCN(c2ccc(OC)cc2[N+](=O)[O-])CC1,inactive,
O=C1c2ccccc2NC(c2ccc(-c3cccc([N+](=O)[O-])c3)o2)N1O (stereo not given),"inconclusive: 11.2 µM [inhibitor, partial curve]",
CC1(C)CC(=O)c2sc(NC(=O)CN3C(=O)CCC3=O)nc2C1,"inconclusive: 3.55 µM [inhibitor, single point]",
Cc1cc(N2CCOCC2)nc2ccc(NC(=O)CCC(=O)N3CCCC(C)C3)cc12 (stereo not given),"inconclusive: 14.1 µM [activator, single point]",
CC(C)(C)c1cc(CN(CCO)CCO)cc(C(C)(C)C)c1O,"inconclusive: 12.6 µM [activator, single point]",
Cc1ccc2c(Cl)cc(Cl)c(OCC(=O)Nc3ccc(C)c(S(=O)(=O)N(C)C)c3)c2n1,"inconclusive: 10 µM [inhibitor, partial curve, poor fit]",
COc1cccc2sc(NNC(=O)c3nc4ccccc4s3)nc12,"inconclusive: 20 µM [inhibitor, single point]",
CC1CCCCC1NS(=O)(=O)c1ccc(S(=O)(=O)NCc2ccncc2)cc1 (stereo not given),"inconclusive: 11.2 µM [inhibitor, single point]",
COCCCNC(=O)C(C#N)c1nc2ccccc2nc1N1CCCC1 (stereo not given),"inconclusive: 7.08 µM [activator, full curve]",
O=C(CSc1nncn1-c1cccnc1)N(c1ccccc1)c1ccccc1,,inactive: 2.45% [at 9.22 µM]
CCn1c2ccccc2c2cc(NC(=S)N3CCOCC3)ccc21,"inconclusive: 35.5 µM [inhibitor, single point]",

Compound,Potency,"activity change, negative = inhibition"
CCC(=O)Nc1ccc(C(=O)CSc2nc(N)cc(N)n2)cc1,,inactive: 19.9% [at 9.22 µM]
O=C(CSc1nc(O)c(Cc2ccccc2)c(=O)[nH]1)Nc1nc2c(s1)CCCC2,"inconclusive: 35.5 µM [activator, single point]",
Cc1ccc2nc(/C(C#N)=C\c3ccc(N4CCOCC4)o3)[nH]c2c1,"inconclusive: 25.1 µM [activator, single point]",
COc1ccccc1N1CCN(/N=C/C=C\c2ccco2)CC1,inactive,
Cc1nc2c3cnn(-c4ccccc4)c3ncn2n1,"inconclusive: 3.55 µM [inhibitor, single point]",
Cc1ccc(C(C)C)c(OCc2nnc(SCC(=O)Nc3nccs3)n2C)c1,"inconclusive: 0.355 µM [inhibitor, full curve, poor fit]",
CCOC(=O)c1ccc(NC(=O)CNC(=O)C2CCCCC2)cc1,"inconclusive: 3.98 µM [inhibitor, single point]",
O=C(N/N=C/c1c[nH]c2ccccc12)C1CC1(c1ccccc1)c1ccccc1 (stereo not given),"inconclusive: 5.62 µM [inhibitor, single point]",
CC(=O)Nc1cc(NC(C)=O)c(N=Nc2ccccc2)cc1C,"inconclusive: 0.282 µM [activator, full curve, poor fit]",
CCC(=O)N1CCN(c2ccc(NC(=S)NC(=O)c3ccc(OC)c([N+](=O)[O-])c3)cc2)CC1,,inactive: 19.6% [at 9.22 µM]
COc1ccc(-c2cc(C(=O)NN)n(-c3ccccc3)n2)cc1,"inconclusive: 17.8 µM [inhibitor, single point]",
N#Cc1c(Nc2ccccc2C(F)(F)F)s[nH]c1=O,,inactive: 21.4% [at 9.22 µM]
COc1cccc(/C=N/n2c(N)nc3ccccc32)c1OC,"inconclusive: 10 µM [inhibitor, partial curve]",
NC(=O)c1ccsc1NC(=O)c1nc(-c2ccccc2)n(-c2ccccc2)n1,"inconclusive: 35.5 µM [inhibitor, single point]",
COC(=O)c1ccc(CS(=O)(=O)c2ccccc2C)o1,"inconclusive: 35.5 µM [inhibitor, single point]",
CC(C)c1ccccc1NC(=O)COc1ccc(C(=O)NCCc2ccccc2)cc1,inactive,
O=C(Nc1ccc(Br)cc1)Nc1ccccc1F,"inconclusive: 11.2 µM [inhibitor, partial curve]",
COC(=O)N/N=C(\C)c1ccc(OC(F)F)cc1,inactive,
Cc1ccc(S(=O)(=O)N2CCCC(C(=O)N(Cc3cccs3)C3CC3)C2)cc1 (stereo not given),"inconclusive: 28.2 µM [inhibitor, single point]",
Cc1cc(C)cc(N2C(=O)CC(Cn3nc(C)cc3C)C2=O)c1 (stereo not given),,inactive: 0.334% [at 9.22 µM]
CC1CCC(C(C)C)C(OCC(O)CN2CCCC(C)C2)C1 (stereo not given),inactive,
CC(C)CCNC(=O)C(c1ccco1)N(Cc1ccccc1)C(=O)c1snc(C(N)=O)c1N (stereo not given),inactive,

# An excerpt of these results, bar-delimited:
Compound | Potency | activity change, negative = inhibition
CC(C)c1ccccc1NC(=O)COc1ccc(C(=O)NCCc2ccccc2)cc1 | inactive | 
O=C(Nc1ccc(Br)cc1)Nc1ccccc1F | inconclusive: 11.2 µM [inhibitor, partial curve] | 
COC(=O)N/N=C(\C)c1ccc(OC(F)F)cc1 | inactive | 
Cc1ccc(S(=O)(=O)N2CCCC(C(=O)N(Cc3cccs3)C3CC3)C2)cc1 (stereo not given) | inconclusive: 28.2 µM [inhibitor, single point] | 
Cc1cc(C)cc(N2C(=O)CC(Cn3nc(C)cc3C)C2=O)c1 (stereo not given) |  | inactive: 0.334% [at 9.22 µM]
